Laboratory results as given in ChEMBL document CHEMBL4316593 (Eur J Med Chem, 2019).
This continues a long series; more values of the same kind are listed elsewhere.

Assays:
Assay type in all cases: cell-based
Conditions in all cases: U-87MG ATCC
[1] = Inhibition of RTK/PI3K/AKT/mTOR signaling in human U87 cells assessed as up regulation of MAP kinase interacting serine/threonine kinase 2 gene expression at cytotoxic IC50 measured after 48 hrs relative to control
[2] = Inhibition of RTK/PI3K/AKT/mTOR signaling in human U87 cells assessed as down regulation of RGP1 gene expression at cytotoxic IC50 measured after 48 hrs relative to control
[3] = Inhibition of RTK/PI3K/AKT/mTOR signaling in human U87 cells assessed as down regulation of UBE3B gene expression at cytotoxic IC50 measured after 48 hrs relative to control
[4] = Inhibition of RTK/PI3K/AKT/mTOR signaling in human U87 cells assessed as up regulation of ATPase Na+/K+ transporting subunit alpha 3 gene expression at cytotoxic IC50 measured after 48 hrs relative to control
[5] = Inhibition of RTK/PI3K/AKT/mTOR signaling in human U87 cells assessed as up regulation of alkB homolog 7 gene expression at cytotoxic IC50 measured after 48 hrs relative to control
[6] = Inhibition of RTK/PI3K/AKT/mTOR signaling in human U87 cells assessed as down regulation of TCF7 gene expression at cytotoxic IC50 measured after 48 hrs relative to control
[7] = Inhibition of RTK/PI3K/AKT/mTOR signaling in human U87 cells assessed as up regulation of heparan sulfate 6-O-sulfotransferase 2 gene expression at cytotoxic IC50 measured after 48 hrs relative to control
[8] = Inhibition of RTK/PI3K/AKT/mTOR signaling in human U87 cells assessed as down regulation of SLC25A22 gene expression at cytotoxic IC50 measured after 48 hrs relative to control
[9] = Inhibition of RTK/PI3K/AKT/mTOR signaling in human U87 cells assessed as up regulation of GALE gene expression at cytotoxic IC50 measured after 48 hrs relative to control
[10] = Inhibition of RTK/PI3K/AKT/mTOR signaling in human U87 cells assessed as up regulation of SOX12 gene expression at cytotoxic IC50 measured after 48 hrs relative to control
[11] = Inhibition of RTK/PI3K/AKT/mTOR signaling in human U87 cells assessed as up regulation of endoplasmic reticulum aminopeptidase 1 gene expression at cytotoxic IC50 measured after 48 hrs relative to control
[12] = Inhibition of RTK/PI3K/AKT/mTOR signaling in human U87 cells assessed as up regulation of LARGE xylosyl- and glucuronyltransferase 2 gene expression at cytotoxic IC50 measured after 48 hrs relative to control
[13] = Inhibition of RTK/PI3K/AKT/mTOR signaling in human U87 cells assessed as up regulation of SMAD2 gene expression at cytotoxic IC50 measured after 48 hrs relative to control
[14] = Inhibition of RTK/PI3K/AKT/mTOR signaling in human U87 cells assessed as down regulation of PLEKHM3 gene expression at cytotoxic IC50 measured after 48 hrs relative to control
[15] = Inhibition of RTK/PI3K/AKT/mTOR signaling in human U87 cells assessed as up regulation of syntaxin 2 gene expression at cytotoxic IC50 measured after 48 hrs relative to control
[16] = Inhibition of RTK/PI3K/AKT/mTOR signaling in human U87 cells assessed as up regulation of serine/threonine kinase 11 interacting protein gene expression at cytotoxic IC50 measured after 48 hrs relative to control
[17] = Inhibition of RTK/PI3K/AKT/mTOR signaling in human U87 cells assessed as up regulation of ABCC3 gene expression at cytotoxic IC50 measured after 48 hrs relative to control
[18] = Inhibition of RTK/PI3K/AKT/mTOR signaling in human U87 cells assessed as down regulation of PCSK7 gene expression at cytotoxic IC50 measured after 48 hrs relative to control
[19] = Inhibition of RTK/PI3K/AKT/mTOR signaling in human U87 cells assessed as up regulation of ArfGAP with GTPase domain, ankyrin repeat and PH domain 1 gene expression at cytotoxic IC50 measured after 48 hrs relative to control
[20] = Inhibition of RTK/PI3K/AKT/mTOR signaling in human U87 cells assessed as up regulation of suppressor of cytokine signaling 5 gene expression at cytotoxic IC50 measured after 48 hrs relative to control
[21] = Inhibition of RTK/PI3K/AKT/mTOR signaling in human U87 cells assessed as down regulation of CDC42BPB gene expression at cytotoxic IC50 measured after 48 hrs relative to control
[22] = Inhibition of RTK/PI3K/AKT/mTOR signaling in human U87 cells assessed as down regulation of UBA5 gene expression at cytotoxic IC50 measured after 48 hrs relative to control
[23] = Inhibition of RTK/PI3K/AKT/mTOR signaling in human U87 cells assessed as up regulation of heat shock protein 90 beta family member 1 gene expression at cytotoxic IC50 measured after 48 hrs relative to control
[24] = Inhibition of RTK/PI3K/AKT/mTOR signaling in human U87 cells assessed as down regulation of TTLL3 gene expression at cytotoxic IC50 measured after 48 hrs relative to control
[25] = Inhibition of RTK/PI3K/AKT/mTOR signaling in human U87 cells assessed as down regulation of STAT3 gene expression at cytotoxic IC50 measured after 48 hrs relative to control
[26] = Inhibition of RTK/PI3K/AKT/mTOR signaling in human U87 cells assessed as down regulation of AP5Z1 gene expression at cytotoxic IC50 measured after 48 hrs relative to control
[27] = Inhibition of RTK/PI3K/AKT/mTOR signaling in human U87 cells assessed as down regulation of NQO2 gene expression at cytotoxic IC50 measured after 48 hrs relative to control
[28] = Inhibition of RTK/PI3K/AKT/mTOR signaling in human U87 cells assessed as down regulation of MCM9 gene expression at cytotoxic IC50 measured after 48 hrs relative to control
[29] = Inhibition of RTK/PI3K/AKT/mTOR signaling in human U87 cells assessed as up regulation of METAP1 gene expression at cytotoxic IC50 measured after 48 hrs relative to control
[30] = Inhibition of RTK/PI3K/AKT/mTOR signaling in human U87 cells assessed as down regulation of OSGIN1 gene expression at cytotoxic IC50 measured after 48 hrs relative to control
[31] = Inhibition of RTK/PI3K/AKT/mTOR signaling in human U87 cells assessed as up regulation of caveolin 1 gene expression at cytotoxic IC50 measured after 48 hrs relative to control
[32] = Inhibition of RTK/PI3K/AKT/mTOR signaling in human U87 cells assessed as up regulation of PACSIN2 gene expression at cytotoxic IC50 measured after 48 hrs relative to control

CC(=O)C(=NNc1ccccc1C#N)C(C)=O
log2FC [1]: 1.09 | log2FC [2]: -0.801 | log2FC [3]: -0.531 | log2FC [4]: 1.03 | log2FC [5]: 1.1 | log2FC [6]: -0.982 | log2FC [7]: 0.972 | log2FC [8]: -0.638 | log2FC [9]: 0.507 | log2FC [10]: 2.36 | log2FC [11]: 1.55 | log2FC [12]: 0.797 | log2FC [13]: 0.475 | log2FC [14]: -1 | log2FC [15]: 0.746 | log2FC [16]: 1.04 | log2FC [17]: 1.94 | log2FC [18]: -1.16 | log2FC [19]: 0.657 | log2FC [20]: 0.992 | log2FC [21]: -0.459 | log2FC [22]: -0.713 | log2FC [23]: 1.18 | log2FC [24]: -1.05 | log2FC [25]: -0.753 | log2FC [26]: -0.7 | log2FC [27]: -0.567 | log2FC [28]: -0.96 | log2FC [29]: 0.522 | log2FC [30]: -0.551 | log2FC [31]: 1.24 | log2FC [32]: 0.418
